The numbers were not newly measured in patent US20080014228A1, “Solid form” (priority 2006, published 2008), which cites them from elsewhere.

The structures appear in SMILES notation.

For the compound `CC(=O)Nc1ccc(O)cc1` [acetaminophen], the solubility in water entry was “sparingly soluble (sparingly soluble in water (1 g in 30 to 100 g of water))”.
